Measurements as given in PubChem BioAssay AID624297 (National Center for Advancing Translational Sciences (NCATS), 2012).
The whole screen tested about 340,000 compounds, of which about 6,200 (1.8%) were called active. This list was built around the results that the source calls inconclusive (neither active nor inactive); the mix of calls is not that of the screen. Calls follow the shape of the dose curve; as a rule, active = well fitted activation curve with a large enough effect; inconclusive = small, poorly fitted or top-dose-only effect; inactive = no such curve, though single readings can be large or run the other way. Potencies of inconclusive entries are doubtful fits and often do not repeat.

Assay: A quantitative high throughput screen for small molecules that induce DNA re-replication in SW480 colon adenocarcinoma cells. Also: nearly all actives have a fitted effect of over 55% in size. As to re-replication activation: % of control where 0% means no effect.
Settings: Hoechst DNA content imaging, 48 h; re-replication activation: at 46.1 µM (top of the series) unless noted
Summary of the method: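 First, 250 cells per well were seeded. Next, compound or vehicle (23 nL) was pinned in, plates sat 48 hr at 37 C. Finally Hoechst was added for 40 min before fluorescence scanning.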
Potency is read from the fitted curve at half-maximal effect.

| Compound | re-replication activation | Potency |
| --- | --- | --- |
| COc1ccc(NC(=O)CS(=O)CC(=O)NC2CCCc3ccccc32)cc1 (stereo not drawn) | inactive: 0.184% | – |
| O=C(c1cccs1)N(Cc1nc2sc3c(c2c(=O)[nH]1)CCCC3)C1CCCC1 | – | inconclusive: 18.4 µM [activator, single point] |
| COC(=O)N1C(=O)[C@](c2ccsc2)(C(C)C)N1C(=O)OC | – | inconclusive: 20.6 µM [activator, single point] |
| O=C(Nc1ccc2c(c1)OCCO2)c1ccc(Br)cc1 | – | inconclusive: 32.6 µM [activator, partial curve, poor fit] |
| CCOC(=O)c1cn2nc(N3CCCC3)ccc2n1 | inactive: -3.49% | – |
| COCCNC(=O)C(=O)Nc1ccc(Cl)cc1C | – | inconclusive: 29.1 µM [activator, partial curve, poor fit] |
| Cc1ccccc1N1C(=O)c2sc3nc4c(c(=O)n3c2C1=O)CCC4 | – | inconclusive: 29.1 µM [activator, single point] |
| Cc1ccc(N(C(=O)c2snc(C(N)=O)c2N)C(C(=O)NC2CCCC2)c2ccc(C)o2)cc1 (stereo not drawn) | – | inconclusive: 10.3 µM [activator, partial curve, poor fit] |
| CCc1c(C)nc2ncnn2c1N1CCN(S(=O)(=O)c2ccc(OC)cc2)CC1 | – | inconclusive: 0.231 µM [activator, full curve] |
| Cc1ccc(Sc2cnc(N)nc2C)cc1 | – | inconclusive: 2.06 µM [activator, partial curve, poor fit] |
| COc1ccccc1NC(=O)Nc1nc(CC(=O)NCc2ccccn2)cs1 | – | active: 11.6 µM |
| O=C1C2C(c3cccc(/C=C/c4ccccc4)c3)CC=CC2C(c2ccc3ccccc3c2)N1Cc1ccccc1 (stereo not drawn) | inactive: -1.18% | – |
| CCCCn1c(N)c(N(CCOC)C(=O)C2CCN(C(=O)c3ccccc3C)CC2)c(=O)[nH]c1=O | – | inconclusive: 9.2 µM [activator, partial curve, poor fit] |
| Cc1cc([N+](=O)[O-])nn1Cc1noc(C(=O)NCCc2ccccn2)n1 | inactive: -4.29% | – |
| c1ccc(-c2noc(C3CCCCC3)n2)nc1 | inactive: 2.48% | – |
| Cc1ccc(OCC(=O)c2cc(C)n(Cc3cccs3)c2C)c([N+](=O)[O-])n1 | inactive: -1.67% | – |
| Cc1ccc(CNC(=O)CN(c2ccc(Cl)cc2)S(C)(=O)=O)cc1 | inconclusive: -20.2% [activator] | – |
| CCc1ccc(C2C(C(=O)O)c3ccccc3C(=O)N2C)cc1 (stereo not drawn) | inactive: -3.24% | – |
| Cc1nc(SCCOc2ccccc2F)[nH]c(=O)c1Cc1ccccc1 | inactive: 5.38% | – |
| O=C(Nc1ccc(Br)cc1)c1ccc2c(c1)OCO2 | – | inconclusive: 6.51 µM [activator, single point] |
| CCCc1cc(=O)[nH]c(-n2[nH]c3c(c2=O)CCCC3)n1 | – | inconclusive: 28.2 µM [activator, single point] |
| CCOC(=O)Cc1c(C)nc2c(-c3ccccc3)c[nH]n2c1=O | inactive: -4.5% | – |

Reformatted with each value named: 2 of the compounds above
O=C(c1cccs1)N(Cc1nc2sc3c(c2c(=O)[nH]1)CCCC3)C1CCCC1
  Potency: inconclusive: 18.4 µM [activator, single point]
CCc1c(C)nc2ncnn2c1N1CCN(S(=O)(=O)c2ccc(OC)cc2)CC1
  Potency: inconclusive: 0.231 µM [activator, full curve]

Remaining list, next part

| Compound | re-replication activation | Potency |
| --- | --- | --- |
| CC1(C)C(=O)Nc2ccccc2N1C(=O)c1ccc([N+](=O)[O-])cc1 | – | inconclusive: 29.1 µM [activator, single point] |
| CCN(Cc1ccccc1)c1ccc(/C=N/NC(=S)NC(C)C)cc1 | – | inconclusive: 29.1 µM [activator, partial curve, poor fit] |
| Cc1ccc(Nc2nc(CSc3nnc(-c4cccnc4)n3-c3ccccc3C)cs2)cc1 | – | inconclusive: 3.26 µM [activator, full curve] |
| C#CCn1c(S(=O)(=O)Cc2ccc(OC)cc2)nc(-c2ccccc2)c1-c1ccccc1 | – | inconclusive: 5.17 µM [activator, partial curve, poor fit] |
| COc1cc(/C=N\NC(=O)c2nonc2N)c(OC)cc1Br | – | active: 0.291 µM |
| COC(=O)c1nc(NC(=O)c2ccccc2Cl)n[nH]1 | inactive: 0.303% | – |
| COC(=O)C1=C(C)NC2=C(C(=O)CC(c3cccs3)C2)C1c1ccsc1 (stereo not drawn) | – | inconclusive: 29.1 µM [activator, single point] |
| O=C(N/N=C/c1ccccc1O)/C(=C/c1ccccc1)CCO | – | inconclusive: 18.4 µM [activator, single point] |
| CCCCn1c(=O)[nH]c(=O)c2c1nc(-c1ccc(C(F)(F)F)cc1)n2C | – | inconclusive: 0.231 µM [activator, single point] |
| CCc1cc(C(c2ccccc2OC)N2CCOCC2)c(NC(=O)c2ccccc2)s1 (stereo not drawn) | – | inconclusive: 20.6 µM [activator, single point] |
| O=C(CC1(O)C(=O)N(Cc2ccccc2Cl)c2ccccc21)c1ccco1 (stereo not drawn) | – | active: 18.4 µM |
| O=C(NCc1ccccc1Cl)C1CCN(S(=O)(=O)c2ccc(N3CCCC3=O)cc2)CC1 | – | inconclusive: 20.6 µM [activator, single point] |
| CCc1ccc2[nH]c(=O)c(CN(Cc3ccccc3)C(=O)Nc3ccccc3OC)cc2c1 | – | inconclusive: 20.6 µM [activator, partial curve, poor fit] |
| COC(=O)c1sc(-c2ccc(C(C)(C)C)cc2)cc1NC(=O)/C=C/C(=O)O | – | inconclusive: 29.1 µM [activator, single point] |
| COc1ccc(/C=N/NC(=O)c2cccc(NC(=O)c3ccccc3Cl)c2)cc1 | – | active: 6.51 µM |
| O=C(Nc1ccc(NC(=O)c2cccs2)cc1)c1ccccc1 | – | inconclusive: 2.91 µM [activator, single point] |
| CCNC(=O)N(CC)C[C@H]1N[C@@](CC)(C(=O)OC)[C@H]2C(=O)N(Cc3ccccc3)C(=O)[C@@H]12 | – | inconclusive: 0.82 µM [activator, full curve, poor fit] |
| O=C(N/N=C/c1cccc([N+](=O)[O-])c1)c1cccc2cc[nH]c12 | inactive: 3.01% | – |
| CC(=O)Nc1ccccc1S(=O)(=O)CC1CC1(Cl)Cl (stereo not drawn) | – | inconclusive: 0.0046 µM [activator, full curve, poor fit] |
| O=C(CN1CCN(Cc2ccc(F)cc2)CC1)Nc1ccccc1F | – | inconclusive: 0.92 µM [activator, full curve, poor fit] |
| COc1ccc(CC(=O)NCC(c2ccc(OC)cc2)N(C)C)cc1 (stereo not drawn) | – | inconclusive: 29.1 µM [activator, single point] |
